Results are given in words; binding and its absence hold for the method and conditions named. In cells and extracts the contact can be indirect. Some entries that bind do so weakly or less than the wild type.

In PMC4848314 one finds binding data, which are given here for one molecule.

In assay [1] the target is T1, FLD (Arabidopsis) (UniProt Q9CAE3).
T1 sequence: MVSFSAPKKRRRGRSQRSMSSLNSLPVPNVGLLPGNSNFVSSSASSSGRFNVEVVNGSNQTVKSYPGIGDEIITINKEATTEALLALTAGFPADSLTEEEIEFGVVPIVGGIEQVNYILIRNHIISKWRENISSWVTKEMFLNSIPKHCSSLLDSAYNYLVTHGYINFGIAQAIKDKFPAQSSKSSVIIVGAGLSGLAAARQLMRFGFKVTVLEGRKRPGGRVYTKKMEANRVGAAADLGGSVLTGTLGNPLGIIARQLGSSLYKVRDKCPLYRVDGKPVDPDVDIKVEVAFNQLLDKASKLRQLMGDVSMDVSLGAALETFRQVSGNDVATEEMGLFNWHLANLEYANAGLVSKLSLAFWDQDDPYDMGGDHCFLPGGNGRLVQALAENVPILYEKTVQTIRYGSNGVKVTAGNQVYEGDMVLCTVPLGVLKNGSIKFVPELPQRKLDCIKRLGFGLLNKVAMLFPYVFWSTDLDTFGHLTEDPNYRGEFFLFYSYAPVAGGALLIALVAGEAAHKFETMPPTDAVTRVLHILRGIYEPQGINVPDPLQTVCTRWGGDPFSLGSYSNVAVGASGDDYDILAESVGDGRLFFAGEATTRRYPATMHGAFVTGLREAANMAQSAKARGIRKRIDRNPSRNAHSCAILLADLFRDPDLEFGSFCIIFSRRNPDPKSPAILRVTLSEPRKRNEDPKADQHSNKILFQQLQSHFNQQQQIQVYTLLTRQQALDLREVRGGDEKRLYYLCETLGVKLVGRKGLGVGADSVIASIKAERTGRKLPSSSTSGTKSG
The experiment in a line: split reporter; BiFC; YN and YC fusions of full-length cDNAs transiently transformed into tobacco (Nicotiana benthamiana) leaves; confocal microscopy.

For assay [2], the target named is T2, HDA6 (Arabidopsis) (UniProt Q9FML2).
T2 sequence: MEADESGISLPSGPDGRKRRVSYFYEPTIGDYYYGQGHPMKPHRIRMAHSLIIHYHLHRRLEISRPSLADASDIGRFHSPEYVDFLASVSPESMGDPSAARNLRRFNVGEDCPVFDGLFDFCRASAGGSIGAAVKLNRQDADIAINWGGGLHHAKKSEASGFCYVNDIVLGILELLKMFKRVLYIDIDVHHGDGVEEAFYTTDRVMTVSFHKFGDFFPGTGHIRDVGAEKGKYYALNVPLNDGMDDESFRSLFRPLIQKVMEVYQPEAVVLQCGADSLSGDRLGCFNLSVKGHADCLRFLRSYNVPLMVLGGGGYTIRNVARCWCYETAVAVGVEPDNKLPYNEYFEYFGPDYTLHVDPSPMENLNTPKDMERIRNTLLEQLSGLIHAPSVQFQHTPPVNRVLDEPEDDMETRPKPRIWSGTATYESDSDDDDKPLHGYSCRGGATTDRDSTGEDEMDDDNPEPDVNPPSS
The description is as above.

B1: FVE/MSI4 (protein, UniProt O22607 1-507)
chain: MESDEAAAVSPQATTPSGGTGASGPKKRGRKPKTKEDSQTPSSQQQSDVKMKESGKKTQQSPSVDEKYSQWKGLVPILYDWLANHNLVWPSLSCRWGPQLEQATYKNRQRLYLSEQTDGSVPNTLVIANCEVVKPRVAAAEHISQFNEEARSPFVKKYKTIIHPGEVNRIRELPQNSKIVATHTDSPDVLIWDVETQPNRHAVLGAANSRPDLILTGHQDNAEFALAMCPTEPFVLSGGKDKSVVLWSIQDHITTIGTDSKSSGSIIKQTGEGTDKNESPTVGPRGVYHGHEDTVEDVAFSPTSAQEFCSVGDDSCLILWDARTGTNPVTKVEKAHDADLHCVDWNPHDDNLILTGSADNTVRLFDRRKLTANGVGSPIYKFEGHKAAVLCVQWSPDKSSVFGSSAEDGLLNIWDYDRVSKKSDRAAKSPAGLFFQHAGHRDKVVDFHWNASDPWTIVSVSDDCETTGGGGTLQIWRMSDLIYRPEEEVVAELEKFKSHVMTCASKP
For the molecule B1, the binding result in assay [1] and in assay [2] was “binds” each time.
